For at least one entry, the source does not settle the construct or the ends of the probe. Where cells or extracts were used, other partners may take part. Where a protein sequence is shown, tags need not be part of it.
Target: T1, HMGA1 (UniProt P17096)
T1 sequence (looked up, limits assumed): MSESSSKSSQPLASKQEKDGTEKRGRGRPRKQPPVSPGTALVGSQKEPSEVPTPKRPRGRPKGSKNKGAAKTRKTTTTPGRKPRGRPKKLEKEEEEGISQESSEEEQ
Assay: competition with a labelled probe
Settings: 30-fold excess vs P5 probe, IM-9 NE; EMSA: 15 mM Hepes pH 7.9, 1 mM EDTA, 5% glycerol, 40 mM KCl, 0.5 mM DTT, poly(dI-dC), 30 min at 20 C; 6% native PAGE in 0.5x TBE; protein in an extract

“GGGAAATTCCGTGGGAAATTCCGAGCT (double strand) [PRDII oligonucleotide]”: binds.

Reference: paper PMC3867479
